The assay has as its target T1, C9JFB2 and related entries (UniProt Q9Y548).
T1 sequence (whole entry): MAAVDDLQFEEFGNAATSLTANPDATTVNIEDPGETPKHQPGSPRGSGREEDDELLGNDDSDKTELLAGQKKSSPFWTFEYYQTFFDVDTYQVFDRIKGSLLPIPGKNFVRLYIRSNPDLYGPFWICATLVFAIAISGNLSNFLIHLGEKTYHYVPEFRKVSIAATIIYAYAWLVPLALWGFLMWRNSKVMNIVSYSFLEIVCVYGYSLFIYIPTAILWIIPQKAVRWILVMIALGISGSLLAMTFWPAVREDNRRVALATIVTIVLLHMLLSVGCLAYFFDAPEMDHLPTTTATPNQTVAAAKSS
Nature of the assay: NP40-soluble protein abundance relative to vehicle (solubility fold change) (ratio); higher = more soluble protein in presence of GTP. On the procedure: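 Solubility proteome profiling in Jurkat crude lysate. Lysate was treated with Mg-GTP (0.1-10 mM) for 10 min at room temperature and 3 min at 37 °C, then solubilised with 0.8% NP40 and benzonase, followed by ultracentrifugation. Proteins were quantified by TMT10 LC-MS/MS; the value is the NP40-soluble abundance relative to the NP40-processed vehicle, from 3 independent experiments.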

± gives the standard deviation of the averaged measurements. The list shows a part of the results.

`Nc1nc2c(ncn2[C@@H]2O[C@H](COP(=O)(O)OP(=O)(O)OP(=O)(O)O)[C@@H](O)[C@H]2O)c(=O)[nH]1` [guanosine triphosphate]: the NP40-soluble protein abundance runs as follows: (concentration: 0.1mM) 0.964 ± 0.041; (concentration: 0.5mM) 1.02 ± 0.017; (concentration: 1mM) 0.98 ± 0.1; (concentration: 2mM) 0.935 ± 0.04; (concentration: 4mM) 0.918 ± 0.094; (concentration: 6mM) 0.905 ± 0.087. Moreover, the NP40-soluble protein abundance by setting is: (concentration: 8mM) 0.896 ± 0.15; (concentration: 10mM) 0.918 ± 0.048.

These data come from the supplement of paper PMC6411743.
